Measurements as given in US20240084330A1.
These are yes or no findings as the source states them, for the method shown. Some results given as binding are weak or reduced against the parent protein; the word gives no strength.

Chains of the proteins cited; added tags and fusions are not shown.
UniProt Q7M732: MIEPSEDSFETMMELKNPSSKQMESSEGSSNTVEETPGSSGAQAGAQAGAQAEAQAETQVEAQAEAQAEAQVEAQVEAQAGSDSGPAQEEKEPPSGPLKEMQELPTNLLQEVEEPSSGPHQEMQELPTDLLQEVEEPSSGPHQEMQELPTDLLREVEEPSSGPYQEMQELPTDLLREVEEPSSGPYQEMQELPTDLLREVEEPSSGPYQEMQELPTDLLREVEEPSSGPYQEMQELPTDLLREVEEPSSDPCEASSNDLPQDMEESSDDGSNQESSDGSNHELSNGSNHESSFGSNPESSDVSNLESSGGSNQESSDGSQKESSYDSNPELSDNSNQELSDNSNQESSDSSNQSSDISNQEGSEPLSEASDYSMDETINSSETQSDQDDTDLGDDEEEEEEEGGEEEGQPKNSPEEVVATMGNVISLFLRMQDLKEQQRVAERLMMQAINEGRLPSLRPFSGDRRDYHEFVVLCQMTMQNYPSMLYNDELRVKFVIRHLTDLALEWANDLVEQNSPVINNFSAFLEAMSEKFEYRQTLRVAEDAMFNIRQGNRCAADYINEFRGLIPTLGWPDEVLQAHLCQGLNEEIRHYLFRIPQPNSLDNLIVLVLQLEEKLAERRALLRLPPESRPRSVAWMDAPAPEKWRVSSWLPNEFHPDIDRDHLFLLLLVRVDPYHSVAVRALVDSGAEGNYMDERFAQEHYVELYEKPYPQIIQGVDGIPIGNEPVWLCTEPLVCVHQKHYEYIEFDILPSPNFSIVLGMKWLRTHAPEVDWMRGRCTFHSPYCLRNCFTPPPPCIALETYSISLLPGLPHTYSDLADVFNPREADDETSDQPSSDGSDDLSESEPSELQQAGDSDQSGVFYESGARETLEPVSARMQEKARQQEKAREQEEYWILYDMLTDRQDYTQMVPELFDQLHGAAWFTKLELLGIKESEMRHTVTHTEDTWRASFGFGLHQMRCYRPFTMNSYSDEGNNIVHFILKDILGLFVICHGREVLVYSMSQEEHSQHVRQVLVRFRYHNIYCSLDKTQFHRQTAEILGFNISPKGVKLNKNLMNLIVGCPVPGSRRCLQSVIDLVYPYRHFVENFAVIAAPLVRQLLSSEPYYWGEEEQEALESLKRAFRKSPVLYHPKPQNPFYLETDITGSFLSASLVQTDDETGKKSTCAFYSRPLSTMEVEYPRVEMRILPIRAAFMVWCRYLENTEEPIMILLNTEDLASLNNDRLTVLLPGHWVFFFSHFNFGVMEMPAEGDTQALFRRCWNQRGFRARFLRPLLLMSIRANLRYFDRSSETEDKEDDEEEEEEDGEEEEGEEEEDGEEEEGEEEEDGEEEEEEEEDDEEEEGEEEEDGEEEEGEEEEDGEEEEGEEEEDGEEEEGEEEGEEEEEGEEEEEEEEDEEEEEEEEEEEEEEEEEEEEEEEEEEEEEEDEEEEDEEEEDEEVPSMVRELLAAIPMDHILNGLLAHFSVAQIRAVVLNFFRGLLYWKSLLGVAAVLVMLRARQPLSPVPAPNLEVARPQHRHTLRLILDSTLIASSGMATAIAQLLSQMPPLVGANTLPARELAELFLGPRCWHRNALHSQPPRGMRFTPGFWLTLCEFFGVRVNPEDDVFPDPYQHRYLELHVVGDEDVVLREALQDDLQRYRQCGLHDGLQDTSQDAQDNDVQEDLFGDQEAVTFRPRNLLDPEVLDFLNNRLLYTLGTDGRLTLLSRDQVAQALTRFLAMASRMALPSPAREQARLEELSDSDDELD

Molecular target: MmRTL1 (mouse RTL1 produced in E. coli, tags removed) (mouse) (UniProt Q7M732)
Experiment: self-assembly of E. coli-produced protein; size exclusion and electron microscopy

MmRTL1 (mouse RTL1 produced in E. coli, tags removed) (from UniProt Q7M732 1-1744)
binding: binds
